US20210023030A1 (priority 2018, published 2021)
At least one compound was matched to its structure with a doubt left.

Assays:
[1] = system: primary human intestinal organoids; format: cell-based; settings: human colon tissue based in vitro models
Description: 3) The effect of (R)-3-HB and the related SCFA butyrate on the inflammatory response exerted by primary human intestinal organoids upon co-incubation with TNF-α as inflammatory stimulus was measured. Primary human intestinal organoids were cultured for 8 weeks prior to experiments as described in Hannan et al. (2013) Stem Cell Reports.
To induce inflammation, organoids were treated with 60 ng/mL TNF-α alone or in combination with different concentrations of the sodium salts of (R)-3-HB or butyrate for 24 hours. Subsequently, cells were lysed and RNA was isolated using the RNeasy mini kit (Qiagen Ltd, Germany) for synthesis of cDNA. mRNA expression levels of IL-23 was measured by qPCR using the SensiMix SYBR low-ROX kit (Bioline, UK).
Values were normalized versus untreated control and graphs show the difference of mRNA levels measured in organoids treated with TNF-α alone (set as 0) and those treated with TNF-α and butyrate or (R)-3-HB.

[2] = system: primary human intestinal organoids; format: cell-based; settings: TNFα 40 ng/mL, 10 μM, 18 hours
Description: To measure the effect of (R)-3-HB on inflammation of primary human intestinal organoids, healthy large intestine samples of a donor were cultured for 8 weeks in vitro prior to experiments. Method as used in Hannan et al., Stem Cell Reports. Vol. 1, 293-306 Oct. 15, 2013.
1) To induce inflammation, organoids were treated with TNFα (40 ng/mL) alone or in combination with butyrate (10 μM), (R)-3-HB (10 μM), or butyrate and (R)-3-HB for 18 hours. Subsequently, cells were lysed and RNA was isolated for cDNA synthesis and measurement of mRNA expression levels of inflammation factors, NF-κB and TNFα, by qPCR.

| SMILES | range effective at reducing inflammatory and increasing anti-inflammatory protein expression [1] | NF-κB mRNA expression [2] | TNF-α mRNA expression [2] |
| --- | --- | --- | --- |
| C[C@@H](O)CC(=O)O [(R)-3-HB, (R)-3-hydroxybutyrate] | 200 μM-1 mM | – | – |
| CCCC(=O)O [butyrate, reference compound] | – | decreased | decreased |
